Measured values taken from paper PMC8494741.

Sequences of proteins named here, by UniProt entry; tags and fusion partners are left off.
UniProt P49674: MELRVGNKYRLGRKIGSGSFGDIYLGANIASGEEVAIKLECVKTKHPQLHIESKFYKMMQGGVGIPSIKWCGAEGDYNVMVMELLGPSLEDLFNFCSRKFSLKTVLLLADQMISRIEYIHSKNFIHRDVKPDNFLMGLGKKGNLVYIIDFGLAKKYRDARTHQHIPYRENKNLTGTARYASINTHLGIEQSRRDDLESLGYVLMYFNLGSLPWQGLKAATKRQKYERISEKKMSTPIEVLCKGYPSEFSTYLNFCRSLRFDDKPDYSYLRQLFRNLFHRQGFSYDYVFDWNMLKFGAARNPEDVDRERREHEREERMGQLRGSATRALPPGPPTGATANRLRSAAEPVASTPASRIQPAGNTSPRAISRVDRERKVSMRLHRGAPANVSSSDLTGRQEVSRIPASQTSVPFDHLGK
UniProt Q5BJF2: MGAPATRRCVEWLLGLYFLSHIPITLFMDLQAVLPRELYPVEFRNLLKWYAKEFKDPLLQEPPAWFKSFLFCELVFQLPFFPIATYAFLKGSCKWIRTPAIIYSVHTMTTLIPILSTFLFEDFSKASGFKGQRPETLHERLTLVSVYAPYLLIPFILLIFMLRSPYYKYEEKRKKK

Target: T1, Flag-tagged LRP6 mutant lacking the extracellular domain (LRP6-ΔN) (human) (UniProt O75581)
T1 sequence: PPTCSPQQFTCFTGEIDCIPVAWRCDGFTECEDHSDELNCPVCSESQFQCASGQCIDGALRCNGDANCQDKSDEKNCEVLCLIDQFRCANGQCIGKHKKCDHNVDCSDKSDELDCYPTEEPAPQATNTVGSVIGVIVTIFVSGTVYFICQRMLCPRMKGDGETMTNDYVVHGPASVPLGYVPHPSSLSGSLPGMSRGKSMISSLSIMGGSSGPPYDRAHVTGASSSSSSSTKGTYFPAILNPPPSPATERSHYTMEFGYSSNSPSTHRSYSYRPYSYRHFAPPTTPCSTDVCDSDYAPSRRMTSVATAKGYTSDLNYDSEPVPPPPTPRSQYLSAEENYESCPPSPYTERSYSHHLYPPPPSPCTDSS
Experiment: affinity purification with mass spectrometry; HEK293T transfected with N-terminally Flag-tagged LRP6-ΔN or empty vector; RIPA lysate; anti-Flag agarose beads overnight at 4 °C; three washes with RIPA; on-bead trypsin digest; Q Exactive

binding, binds:
CK1ε, endogenous in HEK293T (from UniProt P49674 1-416) (enzyme)
MACF1, endogenous in HEK293T (from UniProt Q9UPN3 1-7388)
Transmembrane protein 97 (TMEM97), endogenous in HEK293T (from UniProt Q5BJF2 1-176)

These are yes or no findings as the source states them, for the method shown. In cells and extracts the contact can be indirect. Here binding means that the protein was enriched with, or labelled near, the bait; the list need not be complete. Where a sequence is shown, tags or fusion partners need not be part of it.
